Experimental data reported in patent publication US20150337051A1 (MORPHOTEK, published 2015).
No constants are given. Whether binding was seen depends on the method and setting. Some results given as binding are weak or reduced against the parent protein; the word gives no strength. Tags and fused reporters may be left off the sequences shown.

Assays:
[1] = target: T1, recombinant CHO TEM-1 Fc fusion protein (UniProt Q9HCU0); assay: ECL sandwich assay on streptavidin plate: biotin-9G5 capture, sulfo-TAG-15F8 detection, TEM-1-Fc standard titrated
T1 sequence (looked up): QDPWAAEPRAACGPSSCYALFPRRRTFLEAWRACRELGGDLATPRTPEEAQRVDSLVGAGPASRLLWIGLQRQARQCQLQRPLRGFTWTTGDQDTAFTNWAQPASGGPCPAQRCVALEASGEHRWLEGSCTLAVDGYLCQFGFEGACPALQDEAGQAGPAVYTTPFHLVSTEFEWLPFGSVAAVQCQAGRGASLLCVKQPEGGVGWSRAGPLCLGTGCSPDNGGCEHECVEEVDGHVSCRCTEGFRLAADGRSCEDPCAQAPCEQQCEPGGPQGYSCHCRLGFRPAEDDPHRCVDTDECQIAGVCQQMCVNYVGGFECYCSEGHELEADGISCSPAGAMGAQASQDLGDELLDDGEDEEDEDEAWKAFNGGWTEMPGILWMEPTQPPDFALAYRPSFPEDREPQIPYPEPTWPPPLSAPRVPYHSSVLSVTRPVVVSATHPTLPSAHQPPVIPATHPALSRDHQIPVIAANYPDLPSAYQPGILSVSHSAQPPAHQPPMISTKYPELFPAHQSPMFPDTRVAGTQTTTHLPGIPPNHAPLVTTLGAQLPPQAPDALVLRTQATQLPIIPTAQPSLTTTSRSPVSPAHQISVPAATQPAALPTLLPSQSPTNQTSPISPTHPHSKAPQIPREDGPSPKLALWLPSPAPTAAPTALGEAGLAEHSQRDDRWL

[2] = target: T1, recombinant CHO TEM-1 Fc fusion protein; assay: ECL sandwich assay on streptavidin plate, TEM-1 Fc fusion protein as calibrator

B1: Antibody 15F8 (antibody, V domains shown)
VH: EVQLVESGGGLVQPGRSMKLSCSASGFTFRNYYMAWVRQAPTRGLEWVASTGTGGDFTYYRDSVKGRFTISRDTAENTLYLQMDSLRSEDTATYYCARAYGYFDYWGQGVKVTVSS
VL: DIVLTQSPTTLSVTPGETVSLSCRASHSVGTNLHWYQQKPNESPRLLIKYVSQSNSGIPSRFSASGSGTDFTLNIKNVEFNDVSSYFCQQTQSWPLTFGAGTKLEIK
notes: Rat monoclonal antibody from hybridoma, IgG2a/kappa; also called 15F8.G6.B4; ATCC PTA-12540
In the case of B1, the binding [1] is reported as “binds” and the binding [2] is reported as “binds”.

B2: Antibody 9G5 (antibody, V domains shown)
VH: EVKLEESGGGLVQPGMSVKLSCATSGFTFSDYWMEWVRQAPGKGLEWVAEIRNKLNNYVTNYGKPVRGRFTISRDDSKSIVYLQVNSIRSEDTGIYYCTRIQRVITTGEYFDYWGQGVMVTVSS
VL: DIQMTQSPSLLSASEGDRVTLSCKASQNIYKYLNWYQQKLGEAPKLLIYNINNLQTGIPSRFSGSGSGTDFTLTISSLQPEDVATYYCYQYNSGRAFGGGTKLELK
notes: Rat monoclonal antibody from hybridoma, IgG1/kappa; also called 9G5.F2.C1.F4; anti-TEM-1 clone 9G5
For B2, the binding [1] was “binds” and the binding [2] was “binds”.
